# PubChem BioAssay AID1259254 – NCATS – 2017
# Test: 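Genome-wide screen for genes that prevent DNA re-replication in cancer cells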 (primary screen)
# Cell system: human HCT116 colorectal cancer cells
# Knock-down reagent: single siRNA against human genes
# Duration: 3 days
# Measured: 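Nuclei stained with Hoechst and imaged; cell-cycle phase assigned by DNA content; G2 share scaled per plate, non-targeting siRNA 0%, GMNN siRNA 100%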
# Direction: G2 robust z-score: higher = more G2 cells, more excess DNA replication
# Rule for the call: 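Active siRNAs have a G2 robust z of 5 or more median absolute deviations over the median, which in these data means about 38% or higher of GMNN control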
# In all, the deposit lists about 59,000 reagents; below is a part drawn at random. About 1,550 of all reagents (2.6%) count as active. 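G2 share is only a proxy for re-replication; each gene was hit by three separate siRNAs, and active genes were retested.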 Reagents against one gene are numbered here. Further read-outs or replicates are left out here. The record does not give: the amount of reagent.
gene knocked down,reagent,G2 robust z-score,activity call
SLC60A1,1,0.119,inactive
SLC60A1,2,-1.08,inactive
SLC60A1,3,0.307,inactive
CTAGE1 (cutaneous T cell lymphoma-associated antigen 1),1,-0.85,inactive
CTAGE1 (cutaneous T cell lymphoma-associated antigen 1),2,-0.61,inactive
CTAGE1 (cutaneous T cell lymphoma-associated antigen 1),3,0.0825,inactive
CALML5 (calmodulin like 5),1,1.52,inactive
CALML5 (calmodulin like 5),2,-1.17,inactive
CALML5 (calmodulin like 5),3,-0.31,inactive
ANKEF1 (ankyrin repeat and EF-hand domain containing 1),1,-0.467,inactive
ANKEF1 (ankyrin repeat and EF-hand domain containing 1),2,-1.01,inactive
ANKEF1 (ankyrin repeat and EF-hand domain containing 1),3,1.11,inactive
TCEAL3 (transcription elongation factor A like 3),1,0.146,inactive
TCEAL3 (transcription elongation factor A like 3),2,-0.249,inactive
TCEAL3 (transcription elongation factor A like 3),3,-0.0545,inactive

Sorted by “G2 robust z-score” (low to high): 3 of the entries above
gene knocked down,reagent,G2 robust z-score,activity call
ANKEF1 (ankyrin repeat and EF-hand domain containing 1),2,-1.01,inactive
TCEAL3 (transcription elongation factor A like 3),1,0.146,inactive
ANKEF1 (ankyrin repeat and EF-hand domain containing 1),3,1.11,inactive

Continued.
gene knocked down,reagent,G2 robust z-score,activity call
C12orf57 (chromosome 12 open reading frame 57),1,0.274,inactive
C12orf57 (chromosome 12 open reading frame 57),2,2.12,inactive
C12orf57 (chromosome 12 open reading frame 57),3,0.00884,inactive
UFSP2 (UFM1 specific peptidase 2),1,-0.264,inactive
UFSP2 (UFM1 specific peptidase 2),2,-0.496,inactive
UFSP2 (UFM1 specific peptidase 2),3,-1.21,inactive
CSE1L (chromosome segregation 1 like),1,3.32,inactive
CSE1L (chromosome segregation 1 like),2,4.11,inactive
CSE1L (chromosome segregation 1 like),3,8.01,active
DNAJB2 (DnaJ heat shock protein family (Hsp40) member B2),1,-0.715,inactive
DNAJB2 (DnaJ heat shock protein family (Hsp40) member B2),2,-0.811,inactive
DNAJB2 (DnaJ heat shock protein family (Hsp40) member B2),3,-0.74,inactive
PSPC1 (paraspeckle component 1),1,0.686,inactive
PSPC1 (paraspeckle component 1),2,-0.605,inactive
PSPC1 (paraspeckle component 1),3,-0.742,inactive
